{"sequences": {"note": "Amino acid sequences for entries named in this document (tags omitted). Residues count along the entry.", "UniProt O60603, 21-784": "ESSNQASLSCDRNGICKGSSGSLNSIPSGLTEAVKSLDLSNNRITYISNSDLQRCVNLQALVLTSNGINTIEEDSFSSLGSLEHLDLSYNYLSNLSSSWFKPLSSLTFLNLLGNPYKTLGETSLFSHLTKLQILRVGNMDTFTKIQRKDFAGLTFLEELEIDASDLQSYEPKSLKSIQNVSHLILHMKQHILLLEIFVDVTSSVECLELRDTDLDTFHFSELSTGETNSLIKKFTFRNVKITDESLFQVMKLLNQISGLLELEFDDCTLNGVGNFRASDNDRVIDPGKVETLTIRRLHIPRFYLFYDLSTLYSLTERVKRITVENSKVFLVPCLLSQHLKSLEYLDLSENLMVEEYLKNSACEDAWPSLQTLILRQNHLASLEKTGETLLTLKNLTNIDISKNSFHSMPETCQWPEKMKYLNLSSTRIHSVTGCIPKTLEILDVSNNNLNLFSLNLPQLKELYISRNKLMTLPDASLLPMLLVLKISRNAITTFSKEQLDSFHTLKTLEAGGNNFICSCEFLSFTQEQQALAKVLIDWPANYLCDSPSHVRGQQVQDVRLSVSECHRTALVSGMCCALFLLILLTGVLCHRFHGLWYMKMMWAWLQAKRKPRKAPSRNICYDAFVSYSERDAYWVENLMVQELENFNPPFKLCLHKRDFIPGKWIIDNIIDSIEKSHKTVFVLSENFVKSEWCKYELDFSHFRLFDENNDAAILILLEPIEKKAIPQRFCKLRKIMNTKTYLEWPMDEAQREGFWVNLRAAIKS"}, "source": "patent US20090136547A1", "about": "“ZWITTERIONIZATION OF CAPSULAR SACCHARIDES” (NOVARTIS VACCINES AND DIAGNOSTICS SRL, priority 2005, published 2009)", "molecular_target": "T1, TLR2 receptor (Homo sapiens, UniProt O60603)", "T1 construct": "endogenous in cells; host or cells: purified monocytes", "test": "Monocyte activation (TNFα, CD80/MHC-II) in absence or presence of anti-TLR2 antibody", "type": "cell-based", "conditions": "FIG. 21", "note": "At least one structure is not confirmed: it was looked up by name or label, or the drawing left a doubt."}
{"compound": "CCOCc1nc2c(N)nc3ccccc3c2n1CC(C)(C)O", "note": "[resiquimod]", "values": [{"measurement": "effect of anti-TLR2 blocking antibody on monocyte activation", "value": "did not block activation"}, {"measurement": "effect of anti-TLR2 blocking antibody on monocyte activation", "setting": "listed as R848", "value": "not"}]}
